These are yes or no findings as the source states them, for the method shown. A result given as binding can be weak or reduced; the word gives no strength. Tags and fused reporters may be left off the sequences shown.
B1: Arabidopsis MPS1 (Y2H fusion) (enzyme, UniProt Q84VX4 1-777)
chain: MDREDNLPVQPDKPPKSLVRPILNLETTSSSSSSSSSSPELLRHLQAAFKRHRPLSKMQTTSIGPRRSVAPQRQASRNTRLVTAEGQRSQDVVTLSQSLAANTLTQDTTNNLAITSVAGESASITQPTVSEHFNPSDRQMDFGKSAVTSLESNLDVQRKSQSLIGTSQDMEWDATNQAEASHLDACIGSKHQNLPSVDSEVSLKSEYKDSSSLAKIQGQLGEFPNFLNQPRTRCSAVGSSWATTTLIHSSSAPMLNATTHVSRSYVEADSNANPHAVQSQGNLPSCCPSSKVSNILHPNKDATASEMPASTNDPEVRVKETDTSKQQQITTGLEAPVGSSIYGSDGQANARLPEELHTSVSSQPQKSDKHEKVASSKGPSAPRKRNYDPDLFFKVNGKLYQRLGKIGSGGSSEVHKVISSDCTIYALKKIKLKGRDYATAYGFCQEIGYLKKLKGKTNIIQLIDYEVTDKTLLQEVLNGTMSNKDGRVKEDGFIYMVLEYGEIDLAHMLSQKWREIEGSDRTIDENWLRFYWQQILQAVNTIHEERIVHSDLKPANFLLVRGFLKLIDFGIAKAINSDTTNIQRDSQVGTLSYMSPEAFMCNESDENGNTIKCGRPSDIWSLGCILYQMVYGRTPFADYKTFWAKFKVITDPNHEITYNQLSNPWLIDLMKKCLAWDRNQRWRIPELLQHPFLAPPIPHEPQVKTIKLFSLIAESCGSDDDKANSMISQLEQLLSNPAPLPRNDVLDSRDQNQQLLSRVSELCIQLQDRLQGLEGEN
B2: Arabidopsis MAD1 (Y2H fusion) (protein, UniProt Q9LTY1 1-726)
chain: MILRTPQPKRLRSDAGESPFPTGATGSGNQLIIYEDSPLPAPAPLQTSHDHSADQHLCTYQCRQMVKADVLDALSTAEKQVEESKTKLQTLNANFTEADAERKHFRDKFLYSEQELAAAKAREKMLQEQLLMEINNSQERYTKELQSCHELEVKLQNEMNLRKKAESSAATAEEKAKLLEDKLTQLSGSVDREKKRLNNDIAQLGKEAKLSVARIGADLERMQCRAQNAETESNLLRSQLEHLKLIFDECLQEKTEVDKKLSSFTSEAASSSDNSVLVKHLQEELKRYEAEVREARKLKSRHLDAELLNVNLLEEQSRRERAESELSKFHDLQLSMEKLENELSSWKSLLNDIPGVSCPDDIVMRFSVLQNEVVQSTMKIGEASTRIKQLEETLEAIQLGRQNAVSEAALAKEKSEALKTDVKRIEVMLTLVTEEKEQLKAVVNELRKSNSEGSVSGAADGALIQGFESSLAKKENYIKDLEQDLNQLKDVNNRQRTEIELLNEKLVDEARRNKSLERDSDRLRSEISLLESKLGHGDYSAANTRVLRMVNTLGVENEAKQTIEALQAELQKTKERLQAVEELKSQSGDAGKLVDSHITGKIAQLKEQNATLEKREERYKTVFADRISVFRRACCELFGYKIVMDEHQRPNGIPVTRFTLQSIYAQSDDEKLEFEYESGNTSILNNEYASQGDIAKQIEIFIRKFNSIPAFTANLTMESFNRRTLY
B3: Arabidopsis NUF2 (Y2H fusion) (protein, UniProt Q8RXJ0 1-440)
chain: MSAYEYPRLSRSDIITALKDAQIASVTETDLKTPTSDFVSELYTRILIYLDALDEEEKGQVDFEALEQLENPDHHATSMQAMKLYCKVKDMLEMLDCPLPISFKDLLRPESSRTEFFISALLNYGLYKDSKMDLIRPKAEELGLLDEQRKQCEAKVAQLNAEIGEFDEAVERDLPFVQELEANIEQLNKKILELNNQQMSLRATFQKMREKSTQMDNEISKAEFDLVETVQENANLRSQIVQSPDKLQGALEEKKLVLGETKKAEQSAMVTFQEKAAILEVFEKALKKILKSSSQLQLINEQVTNAKTVEKEFKALKDKLSEDGVAYKSLEAKVVERERIVEQLNESLKQLEKEKAVMFDDWTKQLNELKVEVESRRRELETRQTNVESVVAMVDDNTAKTNQVRQSGEAKVKKLAAKYEEIVKQFHEYTVSFDAFLPSL
B4: Arabidopsis MIS12 (Y2H fusion) (protein, UniProt Q2V0Z5 1-238)
chain: MEGSKSEAVFDSMNLNPQIFINEAINSVEDYVDQAFDFYARDASKSLKIKGSDKQKSQALSNGIARVRGLLLSVIDNRLKLWESYSLRFCFAVPDGFVLPKSEESSSVHQDGLYDLELDAELDSLRDKLNVVGKRSVELDSELQALERSSVSRERSLRLVNEALELYDESSMDEIFKEMTKMASELRASVERLKTRRMKASESAKVKRLKNHGKEFSAMTFDGKLEDLEKFQAELRKM

Chains of the proteins cited; added tags and fusions are not shown. Lines headed by an entry give the natural chain unless they say otherwise; changes in a name come on top.
UniProt F4IVI0: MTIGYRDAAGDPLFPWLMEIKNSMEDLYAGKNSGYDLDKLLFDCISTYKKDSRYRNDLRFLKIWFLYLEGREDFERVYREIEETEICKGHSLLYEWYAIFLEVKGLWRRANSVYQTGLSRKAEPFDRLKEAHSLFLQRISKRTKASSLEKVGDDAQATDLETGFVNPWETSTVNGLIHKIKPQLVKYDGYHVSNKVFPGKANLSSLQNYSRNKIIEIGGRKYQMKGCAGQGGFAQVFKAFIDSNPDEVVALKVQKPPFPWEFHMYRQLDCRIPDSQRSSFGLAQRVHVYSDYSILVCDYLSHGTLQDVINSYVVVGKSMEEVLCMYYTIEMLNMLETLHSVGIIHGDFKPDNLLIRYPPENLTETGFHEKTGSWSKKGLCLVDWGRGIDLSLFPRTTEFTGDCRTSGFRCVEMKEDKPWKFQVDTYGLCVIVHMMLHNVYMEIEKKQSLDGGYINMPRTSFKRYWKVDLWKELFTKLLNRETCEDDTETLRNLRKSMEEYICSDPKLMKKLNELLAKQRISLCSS

Columns and labels:
Assay in all cases: two-hybrid
[1] = molecular target: T1, Arabidopsis CENP-C (Y2H fusion) (Arabidopsis thaliana) (UniProt Q66LG9)
T1 sequence: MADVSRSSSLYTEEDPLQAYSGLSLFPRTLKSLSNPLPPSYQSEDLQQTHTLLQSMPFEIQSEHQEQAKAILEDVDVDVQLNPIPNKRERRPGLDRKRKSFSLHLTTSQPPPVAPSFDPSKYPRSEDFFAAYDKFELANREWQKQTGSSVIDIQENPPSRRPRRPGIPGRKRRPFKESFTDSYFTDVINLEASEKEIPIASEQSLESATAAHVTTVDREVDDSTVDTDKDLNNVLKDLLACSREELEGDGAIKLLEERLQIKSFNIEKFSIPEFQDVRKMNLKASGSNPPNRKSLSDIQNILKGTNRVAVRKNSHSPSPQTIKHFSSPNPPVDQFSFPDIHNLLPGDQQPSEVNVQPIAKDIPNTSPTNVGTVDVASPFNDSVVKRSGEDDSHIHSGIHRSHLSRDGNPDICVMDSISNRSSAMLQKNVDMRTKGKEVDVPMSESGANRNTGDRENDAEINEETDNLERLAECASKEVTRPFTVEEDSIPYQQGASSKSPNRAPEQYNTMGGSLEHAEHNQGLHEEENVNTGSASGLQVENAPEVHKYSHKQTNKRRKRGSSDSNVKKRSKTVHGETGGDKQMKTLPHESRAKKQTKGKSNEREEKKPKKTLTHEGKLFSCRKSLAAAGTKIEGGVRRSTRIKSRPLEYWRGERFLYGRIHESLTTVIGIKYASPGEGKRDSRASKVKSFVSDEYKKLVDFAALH

[2] = molecular target: T2, Arabidopsis MIS12 (Y2H fusion) (Arabidopsis thaliana) (UniProt Q2V0Z5)
T2 sequence: B4 chain

[3] = molecular target: Arabidopsis KNL1, region from amino acids 350 to 450 (Y2H fusion) (Arabidopsis thaliana)
[4] = molecular target: Arabidopsis KNL1 (Y2H fusion) (Arabidopsis thaliana)
[5] = molecular target: Arabidopsis BMF3 (Y2H fusion) (Arabidopsis thaliana) (UniProt Q9FFG4)
[6] = molecular target: Arabidopsis KNL1, ESD containing region (Y2H fusion) (Arabidopsis thaliana)
[7] = molecular target: Arabidopsis KNL1, CC domain (Y2H fusion) (Arabidopsis thaliana)
[8] = molecular target: Arabidopsis NNF1 (Y2H fusion) (Arabidopsis thaliana)

Row | Molecule | binding [4] | binding [6] | binding [7] | also measured
1 | Arabidopsis BMF1 (Y2H fusion) (from UniProt F4IVI0) | – | – | – | binding [1]: binds
2 | Arabidopsis SPC24 (Y2H fusion; paralog not told in the text) | – | – | – | binding [2]: binds
3 | B1 | binds | – | – | binding [3]: binds
4 | B2 | binds | binds | – | binding [5]: binds
5 | B3 | binds | binds | binds | –
6 | B4 | binds | binds | binds | binding [8]: binds

— publication doi:10.1101/2024.11.04.621965
